The supplement of paper PMC3334620
The full ranking holds about 33,000 sequences; the median of “E-score (-0.5 to 0.5)” is about -8e-05, and the highest 2% start at about 0.23. The list shows a part of the results.

target: T1, Nrg2 (UniProt P38082); experiment: PBM E-score (8-mer binding enrichment) (E-score (-0.5 to 0.5)); higher = stronger / more preferred TF binding; conditions: protein concentration: 100 nM; construct: GST-full length
T1 sequence: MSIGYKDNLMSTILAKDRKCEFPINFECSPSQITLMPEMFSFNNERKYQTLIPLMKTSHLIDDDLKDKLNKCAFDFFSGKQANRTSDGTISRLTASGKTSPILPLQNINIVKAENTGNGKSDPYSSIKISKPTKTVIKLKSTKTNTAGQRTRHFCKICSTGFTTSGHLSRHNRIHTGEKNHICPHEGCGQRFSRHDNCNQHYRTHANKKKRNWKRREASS
How it was run: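 Universal all-10-mer Agilent arrays, double-stranded by primer extension on fresh or once-stripped slides, were probed with about 100-200 nM GST-tagged yeast transcription factors made by PURExpress. Fluorescent anti-GST detected bound protein, and masliner normalised the scans. E-scores from the Universal PBM Analysis Suite were given to each ungapped eight-base word pooled with its reverse complement.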

Row | Sequence | PBM E-score
1 | ACTGATCT | 0.0144
2 | GCGGCAAC | 0.0029
3 | ACATGCGA | -0.0276
4 | GCTATCCA | -0.0732
5 | TCGTCAGA | -0.0913
6 | GGCGAGGA | -0.125
7 | GAGTTATA | 0.0355
8 | AGGATAGG | -0.0826
9 | CCCTTTTA | -0.0772
10 | CGGACTAG | -0.192
11 | GCCATACC | -0.233
12 | ATCGATTC | 0.057
13 | GGGCTGAA | 0.00873
14 | CGTTGCCA | -0.00214
15 | CACACACG | 0.0787
16 | AGAGATAA | 0.0742
17 | AACGCAGA | -0.0108
18 | AGTTTTTC | 0.00734
19 | CGTGGACC | -0.0333
20 | ATCGGCTG | -0.0969
21 | GTGTCCCA | -0.0622
22 | AGGTCGAG | -0.0366
23 | CAGCGAAC | 0.105
24 | GGAGGCAA | -0.141
25 | GCGCAATA | 0.0287

Row | Sequence | PBM E-score
26 | AGAAGGGC | -0.0501
27 | GGCACATA | 0.0571
28 | ATCAGGGG | 0.0494
29 | GTAATATA | 0.215
30 | AACCTTCT | -0.064
31 | CGGGCACG | -0.145
32 | ACTGGGCA | -0.123
33 | ACGTCGCA | 0.141
34 | GTATGCTA | 0.0199
35 | CACCACAA | 0.0543
36 | CCGCTAGG | -0.166
37 | ACAAACCT | 0.166
38 | AATTTCAA | -0.0693
39 | GTAAGAAC | 0.0463
40 | CTCGTAAC | 0.132
41 | TATCACGA | 0.059
42 | ATATAAGG | 0.125
43 | CCATCAGG | -0.115
44 | CGGACACC | -0.192
45 | TAGTCTGA | -0.039
46 | GGGCGTTA | 0.0526
47 | GTCCGACA | 0.0602
48 | AGCGGAGC | -0.151
49 | CATCGGGA | 0.0829
50 | GGCAAATA | 0.0445

Row | Sequence | PBM E-score
51 | ACACCGAC | -0.151
52 | ATGATTTA | 0.192
53 | GTCCCATA | 0.0319
54 | CAGGAGGG | -0.178
55 | CCGCCGCA | 0.0152
56 | CGTCCACA | -0.0475
57 | CCCGGATA | -0.0367
58 | CTCTCATC | -0.142
59 | CGGATCAA | 0.148
60 | AAGATGTA | 0.147
61 | CTCCGAGC | 0.034
62 | CATAATTA | 0.173
63 | ACCCTAAT | 0.088
64 | ACGGGTTC | 0.0363
65 | GGCTCTAC | -0.22
66 | TAAGACAA | 0.0513
67 | CTTCCCAC | -0.139
68 | GCAACCAA | 0.129
69 | TCAACGCA | 0.108
70 | GACCCTCC | 0.16
71 | ATCGACGG | 0.0727
72 | AGAACTAA | 0.134
73 | GGAACACC | 0.0203
74 | GACGGTGA | -0.105
75 | CCATTCGA | -0.0491

Reformatted in markdown: part of the list above.

| Row | Sequence | PBM E-score |
| --- | --- | --- |
| 51 | ACACCGAC | -0.151 |
| 52 | ATGATTTA | 0.192 |
| 53 | GTCCCATA | 0.0319 |
| 54 | CAGGAGGG | -0.178 |
| 55 | CCGCCGCA | 0.0152 |

More entries.

Row | Sequence | PBM E-score
76 | CGTAGAGC | 0.0117
77 | CGTCTCCC | -0.141
78 | AACACGCA | 0.115
79 | AGTACAAT | 0.206
80 | GCATGCGC | 0.0537
81 | AGACTTGA | -0.278
82 | CATGCCCC | -0.0492
83 | TGTTGGAA | 0.0563
84 | GGCTCAAC | -0.135
85 | CATATCTA | 0.209
86 | TGTGCAAA | -0.15
87 | CGTCTTAC | -0.102
88 | CCCTTACG | -0.128
89 | CCGAAATC | 0.18
90 | AGCGGGTA | 0.0348
91 | AGACGCAA | 0.162
92 | CGGGCGAG | 0.0918
93 | ATCGCCTG | -0.0827
94 | AAATAACG | 0.134
95 | GCAGAGGC | -0.249
96 | GGGCAGAA | 0.226
97 | GGATTCTA | -0.0214
98 | GGATGTAA | 0.128
99 | ATTGAGAC | 0.0341
100 | CACTTTAG | -0.0797

Row | Sequence | PBM E-score
101 | ATCTGTTC | 0.039
102 | CTCGTAGC | 0.0145
103 | ATATTTGC | 0.195
104 | AGCAGATC | 0.0779
105 | ATCGCAGG | 0.103
106 | GAGCGTGC | 0.036
107 | GCCAGCAC | -0.0402
108 | GTTAGGAA | -0.0262
109 | TCGACGAA | 0.0248
110 | CGCACCCG | -0.00584
111 | TCCGGAAA | 0.0528
112 | CACATGAG | -0.167
113 | ATGCCCGC | -0.0168
114 | ACTTAAAC | 0.0859
115 | TAGACGCA | -0.106
116 | CGAGCGCA | 0.165
117 | CAACTACC | -0.0263
118 | AGCGAGGA | 0.00657
119 | CCGGGCGC | -0.18
120 | CATACGGA | 0.0838
121 | CATGAAAG | 0.133
122 | AGGGCAAA | 0.131
123 | ATGTGTTC | 0.21
124 | GCGCAAAC | 0.211
125 | GCTGCAAC | -0.0525

Row | Sequence | PBM E-score
126 | CCGGGCGA | -0.0266
127 | AAGCAGGG | 0.0257
128 | GCATAATA | 0.201
129 | AGGACGGA | -0.14
130 | AGCGTCGC | -0.0577
131 | AAACCGAG | 0.0125
132 | ATGACACG | -0.0225
133 | AAACTGTA | 0.0982
134 | GGTGGGGA | 0.265
135 | ACAATTTG | -0.11
136 | AAACGGCG | 0.221
137 | CACTAAAC | 0.0415
138 | AGTGTAAT | 0.0182
139 | CCACGAGG | 0.199
140 | AAATATAA | 0.161
141 | CTGTCCAC | -0.0896
142 | ACTACAGC | -0.271
143 | ACGATGGA | 0.0577
144 | AAGTAGGC | 0.0743
145 | AGATGCCG | -0.00454
146 | AGGGGATG | 0.0874
147 | ATTGATGA | 0.149
148 | CGGAACCA | 0.294
149 | CGGCCCAA | -0.0584
150 | TTAGTAAA | 0.169

Row | Sequence | PBM E-score
151 | ACCGCGAG | -0.0245
152 | GACTAGCC | -0.271
153 | TCTATAAA | -0.0201
154 | CCCATGCA | 0.066
155 | ACAACTAT | 0.105
156 | CATCTTAC | -0.00815
157 | AGCATAGG | -0.111
158 | ACACTAGA | 0.126
159 | CGGATATC | 0.125
160 | ATAGTCGA | 0.264
161 | TACTTTAA | 0.0217
162 | ACAAGGGG | -0.0483
163 | TTCACGAA | -0.0665
164 | ATGGCTTA | -0.0228
165 | ACCTATCG | 0.15
166 | GGCCGATA | -0.00019
167 | ATCAAGAT | -0.0138
168 | AGGGCTTC | -0.00488
169 | GCCATTAC | 0.0813
170 | CCAATATA | -0.18
171 | CATTCCGG | -0.00765
172 | CAGGCCCC | -0.152

Part of the list above in a different format.
Row	Sequence	PBM E-score
30	AACCTTCT	-0.064
31	CGGGCACG	-0.145
32	ACTGGGCA	-0.123
33	ACGTCGCA	0.141
34	GTATGCTA	0.0199
35	CACCACAA	0.0543
36	CCGCTAGG	-0.166
37	ACAAACCT	0.166
38	AATTTCAA	-0.0693
39	GTAAGAAC	0.0463
40	CTCGTAAC	0.132
41	TATCACGA	0.059
42	ATATAAGG	0.125
43	CCATCAGG	-0.115
44	CGGACACC	-0.192
45	TAGTCTGA	-0.039
46	GGGCGTTA	0.0526
47	GTCCGACA	0.0602
48	AGCGGAGC	-0.151
49	CATCGGGA	0.0829
50	GGCAAATA	0.0445
51	ACACCGAC	-0.151
52	ATGATTTA	0.192
53	GTCCCATA	0.0319
54	CAGGAGGG	-0.178
55	CCGCCGCA	0.0152
56	CGTCCACA	-0.0475
57	CCCGGATA	-0.0367
58	CTCTCATC	-0.142
59	CGGATCAA	0.148
60	AAGATGTA	0.147
